Source: article PMC11551190
These are yes or no findings as the source states them, for the method shown. In cells and extracts the contact can be indirect. Some binding calls cover weakened binding; strength is not graded here.

Sequences of proteins named here, by UniProt entry; tags and fusion partners are left off.
UniProt P60880: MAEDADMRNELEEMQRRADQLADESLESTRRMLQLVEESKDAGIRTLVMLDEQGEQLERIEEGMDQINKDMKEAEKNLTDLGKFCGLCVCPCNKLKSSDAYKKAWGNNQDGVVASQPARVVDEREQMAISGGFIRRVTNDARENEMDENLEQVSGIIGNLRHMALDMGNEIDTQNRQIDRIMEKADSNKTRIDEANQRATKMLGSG

Molecular target: SNAP25 (human (endogenous in HLFs)) (UniProt P60880)
Experiment: co-IP; reciprocal immunoprecipitation from HLF lysate (IP lysis buffer with protease/phosphatase inhibitors), precleared with protein A/G PLUS-Agarose, primary antibodies and protein A/G PLUS-Agarose at 4 °C overnight, western blot

B1: STX11 (protein, UniProt O75558 1-287)
chain: MKDRLAELLDLSKQYDQQFPDGDDEFDSPHEDIVFETDHILESLYRDIRDIQDENQLLVADVKRLGKQNARFLTSMRRLSSIKRDTNSIAKAIKARGEVIHCKLRAMKELSEAAEAQHGPHSAVARISRAQYNALTLTFQRAMHDYNQAEMKQRDNCKIRIQRQLEIMGKEVSGDQIEDMFEQGKWDVFSENLLADVKGARAALNEIESRHRELLRLESRIRDVHELFLQMAVLVEKQADTLNVIELNVQKTVDYTGQAKAQVRKAVQYEEKNPCRTLCCFCCPCLK
- binding: binds
